PubChem BioAssay AID1259424 | University of Nebraska Medical Center – 2018
Here is an unselected part of about 14,000 reagents. 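Higher correlation or smaller distance means closer resemblance to KSR1 loss; control wells, including KSR1 knockdowns, recur on many plates.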 Not given: the time to read-out.

Purpose: 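Rank knockdowns across the genome by resemblance to the KSR1 depletion profile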 (primary screen)
System: human HCT116 colon cancer cells
Knock-down reagent: siRNA pool against human genes, 50 nM
Read-out: 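Log2 levels of six mRNAs (branched-DNA multiplex), adjusted by two reference genes and the non-targeting median, then scored against the average KSR1 knockdown pattern as Pearson r and euclidean distance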
Scale: mean correlation with KSR1 profile and KSR1 correlation: higher = expression change more like KSR1 knockdown; mean distance from KSR1 profile: higher = expression change less like KSR1 knockdown

target | mean correlation with KSR1 profile | mean distance from KSR1 profile | KSR1 correlation, replicate 1 | KSR1 correlation, replicate 2 | KSR1 correlation, replicate 3
CEP104 (GeneID 9731) | -0.342 | 1.57 | -0.21 | -0.435 | -0.163
SLC49A3 (GeneID 84179) | 0.866 | 0.916 | 0.699 | 0.822 | 0.918
GP9 (GeneID 2815) | -0.196 | 2.82 | 0.0646 | -0.207 | -0.1
ERAL1 (GeneID 26284) | 0.487 | 1.64 | 0.633 | 0.529 | 0.174
ARG1 (GeneID 383) | -0.0638 | 1.09 | 0.167 | -0.343 | -0.206
AKAP8 (GeneID 10270) | -0.129 | 3.79 | 0.209 | -0.372 | -0.47
ARL8B (GeneID 55207) | 0.648 | 0.977 | 0.73 | 0.373 | 0.351
PDE4A (GeneID 5141) | -0.327 | 2.4 | -0.34 | -0.305 | -0.411
GALNT9 (GeneID 50614) | -0.354 | 1.27 | -0.595 | -0.343 | 0.00766
LY6G5C (GeneID 80741) | 0.741 | 1.37 | 0.509 | 0.843 | 0.736
VPS16 (GeneID 64601) | 0.304 | 1.05 | -0.0684 | 0.192 | 0.103
ACHE (GeneID 43) | -0.505 | 2.13 | -0.428 | -0.491 | -0.482
PRDM5 (GeneID 11107) | 0.355 | 1.28 | 0.176 | 0.458 | 0.187
EPHA2 (GeneID 1969) | 0.106 | 1.39 | 0.58 | -0.287 | -0.427
CFAP61 (GeneID 26074) | 0.265 | 2.79 | 0.435 | 0.234 | -0.0235
LPIN2 (GeneID 9663) | 0.577 | 0.761 | 0.316 | 0.644 | 0.627
ZBTB7A (GeneID 51341) | 0.0179 | 1.74 | 0.147 | -0.076 | 0.0177
SREBF2 (GeneID 6721) | 0.299 | 2.02 | 0.132 | 0.237 | 0.376
ATP1A1 (GeneID 476) | -0.0267 | 2.88 | -0.13 | 0.0022 | -0.0568
PES1 (GeneID 23481) | 0.151 | 2.65 | -0.0474 | 0.2 | -0.000469
RDH11 (GeneID 51109) | -0.838 | 3.91 | -0.81 | -0.684 | -0.704
PRRG4 (GeneID 79056) | -0.552 | 2.83 | -0.487 | -0.577 | -0.517
AKNA (GeneID 80709) | 0.143 | 2.53 | 0.191 | 0.0116 | 0.0433
NAT8 (GeneID 9027) | 0.611 | 1.77 | 0.567 | 0.602 | 0.599
ASF1B (GeneID 55723) | -0.45 | 2.46 | -0.547 | -0.443 | -0.33
PDGFC (GeneID 56034) | -0.122 | 1.68 | -0.224 | -0.378 | -0.0353
GNAO1 (GeneID 2775) | 0.69 | 1.36 | 0.557 | 0.688 | 0.724
PAIP1 (GeneID 10605) | -0.784 | 2.49 | -0.383 | -0.699 | -0.625
EPHA7 (GeneID 2045) | -0.173 | 2.32 | -0.0192 | -0.282 | -0.449
RPS12 (GeneID 6206) | -0.186 | 2.86 | -0.479 | -0.217 | 0.0146
IL10RB (GeneID 3588) | -0.684 | 1.93 | -0.754 | -0.751 | -0.384
RTN2 (GeneID 6253) | 0.0163 | 1.55 | 0.0862 | -0.222 | 0.254
RHOBTB1 (GeneID 9886) | 0.784 | 1.76 | 0.872 | 0.783 | 0.612
CD8A (GeneID 925) | -0.309 | 0.922 | 0.774 | -0.247 | -0.78
ARHGEF16 (GeneID 27237) | 0.165 | 3.47 | -0.115 | -0.0123 | 0.442
ZNF343 (GeneID 79175) | -0.235 | 2.7 | -0.12 | -0.468 | -0.413
TMEM161A (GeneID 54929) | 0.0625 | 2.43 | 0.228 | 0.166 | -0.168
LRRC59 (GeneID 55379) | -0.438 | 3.41 | -0.333 | -0.647 | -0.221
IL26 (GeneID 55801) | 0.17 | 1.04 | 0.225 | 0.569 | 0.161
TBK1 (GeneID 29110) | 0.0486 | 2.37 | 0.226 | 0.21 | -0.695
SOX12 (GeneID 6666) | -0.116 | 3.54 | -0.699 | -0.232 | 0.129
DISP3 (GeneID 57540) | -0.475 | 2.6 | -0.357 | -0.437 | -0.287
CDX1 (GeneID 1044) | 0.291 | 2.79 | 0.401 | 0.402 | 0.238
ADRA2A (GeneID 150) | 0.801 | 2.63 | 0.362 | 0.902 | 0.568
SCN2A (GeneID 6326) | -0.242 | 2.31 | -0.222 | -0.455 | -0.131
FCN3 (GeneID 8547) | -0.694 | 2.83 | -0.572 | -0.76 | -0.664
POP5 (GeneID 51367) | 0.246 | 2.94 | 0.0691 | 0.315 | 0.476
EPDR1 (GeneID 54749) | -0.273 | 1.89 | -0.191 | -0.188 | -0.171
FOLR3 (GeneID 2352) | 0.501 | 1.51 | 0.273 | 0.624 | 0.427
SEH1L (GeneID 81929) | 0.128 | 1.96 | -0.265 | 0.108 | 0.364

Limited to “mean distance from KSR1 profile” (4 entries from above):
RPS12 (GeneID 6206): 2.86
IL10RB (GeneID 3588): 1.93
RTN2 (GeneID 6253): 1.55
RHOBTB1 (GeneID 9886): 1.76
